The supplement of paper PMC10849652
Some of the results follow.

By UniProt entry, the sequences of proteins in these tests, tags left out. Where a name states a change or a piece, a line headed by the entry shows the natural chain unless it says otherwise.
UniProt Q99569: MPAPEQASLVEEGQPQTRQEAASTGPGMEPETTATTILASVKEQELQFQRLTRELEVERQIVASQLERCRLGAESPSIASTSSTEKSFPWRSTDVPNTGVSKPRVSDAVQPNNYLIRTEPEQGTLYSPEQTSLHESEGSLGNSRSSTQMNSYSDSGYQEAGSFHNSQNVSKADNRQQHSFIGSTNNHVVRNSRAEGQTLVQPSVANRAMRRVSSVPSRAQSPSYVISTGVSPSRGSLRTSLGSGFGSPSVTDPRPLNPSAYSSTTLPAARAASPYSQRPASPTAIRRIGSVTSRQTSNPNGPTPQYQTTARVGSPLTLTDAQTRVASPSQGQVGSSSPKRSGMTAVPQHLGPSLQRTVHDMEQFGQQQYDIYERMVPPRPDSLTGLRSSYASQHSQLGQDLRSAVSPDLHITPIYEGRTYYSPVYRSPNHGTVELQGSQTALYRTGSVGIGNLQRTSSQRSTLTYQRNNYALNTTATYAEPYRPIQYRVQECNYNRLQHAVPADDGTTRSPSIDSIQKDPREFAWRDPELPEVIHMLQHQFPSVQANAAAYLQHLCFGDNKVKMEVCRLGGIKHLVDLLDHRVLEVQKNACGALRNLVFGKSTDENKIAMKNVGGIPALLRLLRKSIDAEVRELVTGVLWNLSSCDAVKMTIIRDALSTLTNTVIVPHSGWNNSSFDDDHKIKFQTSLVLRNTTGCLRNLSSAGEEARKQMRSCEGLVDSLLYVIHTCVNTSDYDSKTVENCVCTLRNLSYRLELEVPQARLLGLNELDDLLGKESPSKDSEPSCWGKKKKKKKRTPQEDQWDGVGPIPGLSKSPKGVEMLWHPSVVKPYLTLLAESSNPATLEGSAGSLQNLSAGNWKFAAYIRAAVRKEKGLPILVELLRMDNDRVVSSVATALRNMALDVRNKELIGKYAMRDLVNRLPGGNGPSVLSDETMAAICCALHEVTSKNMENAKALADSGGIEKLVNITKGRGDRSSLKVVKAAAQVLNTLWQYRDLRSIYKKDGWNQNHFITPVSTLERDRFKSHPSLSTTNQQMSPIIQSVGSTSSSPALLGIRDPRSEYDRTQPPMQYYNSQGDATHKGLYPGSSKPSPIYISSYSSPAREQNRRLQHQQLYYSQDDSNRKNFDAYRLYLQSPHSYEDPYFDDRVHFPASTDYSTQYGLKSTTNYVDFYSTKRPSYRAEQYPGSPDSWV
UniProt Q8WXW3: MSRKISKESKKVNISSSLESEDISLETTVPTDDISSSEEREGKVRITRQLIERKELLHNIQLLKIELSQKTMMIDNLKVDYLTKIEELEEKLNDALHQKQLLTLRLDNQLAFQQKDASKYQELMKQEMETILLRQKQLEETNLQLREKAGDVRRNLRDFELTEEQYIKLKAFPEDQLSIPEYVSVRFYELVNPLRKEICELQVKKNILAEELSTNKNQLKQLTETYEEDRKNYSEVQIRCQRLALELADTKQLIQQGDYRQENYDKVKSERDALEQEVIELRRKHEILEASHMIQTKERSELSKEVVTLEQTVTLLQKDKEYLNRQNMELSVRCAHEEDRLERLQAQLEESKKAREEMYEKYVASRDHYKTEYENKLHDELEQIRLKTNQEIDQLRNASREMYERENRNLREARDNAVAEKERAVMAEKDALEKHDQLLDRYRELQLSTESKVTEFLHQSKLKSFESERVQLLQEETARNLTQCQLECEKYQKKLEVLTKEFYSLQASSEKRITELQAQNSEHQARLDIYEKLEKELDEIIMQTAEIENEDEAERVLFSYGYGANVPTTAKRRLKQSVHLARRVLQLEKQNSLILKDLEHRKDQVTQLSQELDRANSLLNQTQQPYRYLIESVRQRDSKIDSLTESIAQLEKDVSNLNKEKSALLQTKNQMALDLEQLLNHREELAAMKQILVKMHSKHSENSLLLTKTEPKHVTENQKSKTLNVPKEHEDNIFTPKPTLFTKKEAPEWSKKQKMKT
UniProt P16118: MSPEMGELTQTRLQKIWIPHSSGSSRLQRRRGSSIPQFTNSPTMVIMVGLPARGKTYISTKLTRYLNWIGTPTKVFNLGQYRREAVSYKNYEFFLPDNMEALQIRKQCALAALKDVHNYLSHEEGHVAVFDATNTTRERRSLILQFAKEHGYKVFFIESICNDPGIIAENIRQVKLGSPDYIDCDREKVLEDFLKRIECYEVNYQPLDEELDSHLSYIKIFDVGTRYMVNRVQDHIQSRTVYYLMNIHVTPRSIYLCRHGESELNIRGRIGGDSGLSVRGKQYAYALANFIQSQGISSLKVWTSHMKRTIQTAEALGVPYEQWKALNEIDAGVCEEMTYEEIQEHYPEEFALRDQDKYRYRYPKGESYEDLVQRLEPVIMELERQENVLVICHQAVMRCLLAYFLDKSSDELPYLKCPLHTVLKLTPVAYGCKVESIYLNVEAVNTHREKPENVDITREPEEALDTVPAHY
UniProt Q8N4B1: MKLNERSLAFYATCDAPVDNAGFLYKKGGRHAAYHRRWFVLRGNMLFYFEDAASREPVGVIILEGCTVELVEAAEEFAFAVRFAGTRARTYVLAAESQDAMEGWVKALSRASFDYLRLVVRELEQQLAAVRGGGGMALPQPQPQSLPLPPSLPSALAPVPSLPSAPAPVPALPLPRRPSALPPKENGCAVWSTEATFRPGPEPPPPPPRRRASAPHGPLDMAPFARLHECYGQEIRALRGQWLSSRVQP
UniProt P08567: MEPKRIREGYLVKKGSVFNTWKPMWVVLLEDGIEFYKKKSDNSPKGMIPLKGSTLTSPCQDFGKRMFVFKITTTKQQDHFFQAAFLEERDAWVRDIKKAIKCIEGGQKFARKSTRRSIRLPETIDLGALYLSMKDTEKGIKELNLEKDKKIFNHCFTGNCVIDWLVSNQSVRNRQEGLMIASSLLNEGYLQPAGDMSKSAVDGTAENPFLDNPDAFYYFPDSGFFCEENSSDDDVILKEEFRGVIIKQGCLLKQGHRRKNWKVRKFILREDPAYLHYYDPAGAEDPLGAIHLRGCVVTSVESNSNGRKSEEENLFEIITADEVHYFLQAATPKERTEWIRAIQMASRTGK
UniProt Q03405, whole entry, looked up: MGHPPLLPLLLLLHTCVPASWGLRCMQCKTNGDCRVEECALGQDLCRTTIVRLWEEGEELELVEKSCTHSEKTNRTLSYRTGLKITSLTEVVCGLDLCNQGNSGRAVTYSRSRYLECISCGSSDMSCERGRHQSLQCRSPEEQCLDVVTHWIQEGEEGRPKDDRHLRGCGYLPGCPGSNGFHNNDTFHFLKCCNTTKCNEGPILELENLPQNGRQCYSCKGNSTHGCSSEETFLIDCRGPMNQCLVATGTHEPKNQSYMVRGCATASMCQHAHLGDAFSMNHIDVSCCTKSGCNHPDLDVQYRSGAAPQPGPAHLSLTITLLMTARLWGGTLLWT
UniProt Q9Y2B9: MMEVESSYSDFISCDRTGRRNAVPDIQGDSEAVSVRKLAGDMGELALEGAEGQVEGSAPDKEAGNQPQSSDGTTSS
UniProt Q9HAU0: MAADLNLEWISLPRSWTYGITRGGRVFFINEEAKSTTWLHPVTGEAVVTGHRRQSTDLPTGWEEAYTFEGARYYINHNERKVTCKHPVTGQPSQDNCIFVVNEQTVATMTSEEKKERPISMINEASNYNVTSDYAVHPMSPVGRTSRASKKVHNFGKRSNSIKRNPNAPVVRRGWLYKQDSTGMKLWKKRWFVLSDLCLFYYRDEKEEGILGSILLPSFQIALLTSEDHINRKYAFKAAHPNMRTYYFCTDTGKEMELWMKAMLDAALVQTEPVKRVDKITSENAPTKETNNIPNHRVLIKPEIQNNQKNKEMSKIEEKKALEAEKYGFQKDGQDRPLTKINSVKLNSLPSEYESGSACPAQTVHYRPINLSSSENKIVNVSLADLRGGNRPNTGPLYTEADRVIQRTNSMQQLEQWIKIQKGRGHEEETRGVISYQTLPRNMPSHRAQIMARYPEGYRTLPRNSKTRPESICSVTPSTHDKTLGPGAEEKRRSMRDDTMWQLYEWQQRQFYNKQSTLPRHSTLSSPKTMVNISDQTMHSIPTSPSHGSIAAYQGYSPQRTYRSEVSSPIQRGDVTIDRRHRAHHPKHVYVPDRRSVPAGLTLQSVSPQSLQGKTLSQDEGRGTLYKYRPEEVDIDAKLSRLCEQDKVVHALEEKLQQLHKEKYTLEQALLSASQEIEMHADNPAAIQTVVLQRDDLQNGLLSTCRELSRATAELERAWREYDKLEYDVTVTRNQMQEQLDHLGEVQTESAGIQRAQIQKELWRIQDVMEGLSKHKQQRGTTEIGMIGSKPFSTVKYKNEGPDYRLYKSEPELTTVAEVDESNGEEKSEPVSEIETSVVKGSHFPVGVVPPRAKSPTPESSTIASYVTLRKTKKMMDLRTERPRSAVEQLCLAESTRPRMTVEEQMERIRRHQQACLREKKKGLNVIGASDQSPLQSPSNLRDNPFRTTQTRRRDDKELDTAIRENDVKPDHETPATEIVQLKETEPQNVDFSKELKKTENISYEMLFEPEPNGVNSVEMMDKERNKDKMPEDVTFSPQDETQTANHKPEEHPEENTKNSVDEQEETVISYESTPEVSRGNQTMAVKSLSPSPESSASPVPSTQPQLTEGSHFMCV
UniProt Q8N2W9: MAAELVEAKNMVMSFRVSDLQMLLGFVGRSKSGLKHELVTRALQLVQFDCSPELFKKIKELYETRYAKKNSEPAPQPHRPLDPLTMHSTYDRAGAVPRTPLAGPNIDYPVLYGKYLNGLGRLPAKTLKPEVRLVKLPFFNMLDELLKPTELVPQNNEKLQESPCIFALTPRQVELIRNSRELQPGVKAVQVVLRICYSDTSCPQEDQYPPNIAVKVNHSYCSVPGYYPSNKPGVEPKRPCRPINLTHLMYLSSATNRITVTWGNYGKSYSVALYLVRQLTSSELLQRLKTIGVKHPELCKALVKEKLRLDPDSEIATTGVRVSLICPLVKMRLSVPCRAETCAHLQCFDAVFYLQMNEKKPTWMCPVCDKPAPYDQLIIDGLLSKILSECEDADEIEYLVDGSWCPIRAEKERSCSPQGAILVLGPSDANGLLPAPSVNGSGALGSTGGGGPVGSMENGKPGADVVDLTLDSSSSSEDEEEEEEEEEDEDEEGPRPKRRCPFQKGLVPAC
UniProt Q9BSJ6: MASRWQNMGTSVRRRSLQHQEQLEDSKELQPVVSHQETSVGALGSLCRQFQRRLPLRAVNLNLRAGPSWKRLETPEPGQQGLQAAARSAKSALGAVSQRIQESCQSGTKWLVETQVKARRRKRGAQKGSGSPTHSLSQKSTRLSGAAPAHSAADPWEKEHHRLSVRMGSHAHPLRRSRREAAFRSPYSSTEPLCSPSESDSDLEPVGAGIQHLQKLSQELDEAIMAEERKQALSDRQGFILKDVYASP
UniProt P16885: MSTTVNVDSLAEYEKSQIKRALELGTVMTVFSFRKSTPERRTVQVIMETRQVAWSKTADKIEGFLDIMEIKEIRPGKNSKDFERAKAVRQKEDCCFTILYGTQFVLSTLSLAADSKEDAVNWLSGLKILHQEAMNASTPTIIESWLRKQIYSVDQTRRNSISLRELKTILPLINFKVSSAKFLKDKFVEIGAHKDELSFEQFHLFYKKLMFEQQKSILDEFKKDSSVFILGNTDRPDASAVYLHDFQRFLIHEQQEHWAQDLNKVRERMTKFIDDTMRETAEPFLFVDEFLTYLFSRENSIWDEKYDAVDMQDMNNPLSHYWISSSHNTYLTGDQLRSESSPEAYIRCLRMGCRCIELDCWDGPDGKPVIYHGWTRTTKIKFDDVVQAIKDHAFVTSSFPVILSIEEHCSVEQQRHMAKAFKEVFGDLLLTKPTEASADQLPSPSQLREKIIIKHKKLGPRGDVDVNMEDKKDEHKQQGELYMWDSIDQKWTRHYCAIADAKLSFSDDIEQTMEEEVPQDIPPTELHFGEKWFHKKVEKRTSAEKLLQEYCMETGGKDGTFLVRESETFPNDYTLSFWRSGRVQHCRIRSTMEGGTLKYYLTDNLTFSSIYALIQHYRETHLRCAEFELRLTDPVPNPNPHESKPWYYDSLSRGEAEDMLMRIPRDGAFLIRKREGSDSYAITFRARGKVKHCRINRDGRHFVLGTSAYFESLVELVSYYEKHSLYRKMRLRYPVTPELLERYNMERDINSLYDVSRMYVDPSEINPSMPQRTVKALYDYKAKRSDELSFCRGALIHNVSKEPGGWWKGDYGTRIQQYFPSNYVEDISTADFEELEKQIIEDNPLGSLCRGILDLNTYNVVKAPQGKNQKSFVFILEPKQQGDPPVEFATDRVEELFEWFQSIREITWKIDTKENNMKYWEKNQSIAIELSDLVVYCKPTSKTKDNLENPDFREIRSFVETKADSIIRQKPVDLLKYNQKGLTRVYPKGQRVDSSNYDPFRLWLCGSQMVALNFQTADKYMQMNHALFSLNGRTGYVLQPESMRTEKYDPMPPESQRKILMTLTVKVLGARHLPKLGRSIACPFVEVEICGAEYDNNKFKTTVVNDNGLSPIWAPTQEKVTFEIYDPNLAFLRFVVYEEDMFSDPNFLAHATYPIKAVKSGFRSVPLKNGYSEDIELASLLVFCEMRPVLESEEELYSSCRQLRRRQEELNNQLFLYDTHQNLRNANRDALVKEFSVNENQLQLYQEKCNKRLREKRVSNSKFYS

Key:
Test in all cases: log2 fold change, soluble protein after heating vs DMSO (PISA); higher = thermal stabilisation; K562 cells, 10 uM, 30 min; active = over 0.2 and 3.5 SD of the protein, either way, in both replicates (recomputed)
citarinostat = compound: O=C(CCCCCCNC(=O)c1cnc(N(c2ccccc2)c2ccccc2Cl)nc1)NO [citarinostat]
In short: (§1)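 K562 cells at 2×10^6 cells/mL were treated for 30 min with 10 μM compound, and aliquots were heated for 3 min over 48°C-58°C before pooling. Extraction used PBS with 0.5% NP-40 at 4°C, and soluble protein was the supernatant after 21,000xg for 90 min, measured by TMTpro 16plex LC-MS/MS with channel sums equalised. Thermal stability values, relative to control samples and from duplicates, are log2 fold changes.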

[1] = compound: O=C1NC(=O)C(c2cnc3ccccn23)=C1c1cn2c3c(cc(F)cc13)CN(C(=O)N1CCCCC1)CC2
In short: as §1

[2] = compound: c1cc(OCCN2CCCCC2)cc(-c2n[nH]c3ccc(-c4nnc[nH]4)cc23)c1
In short: as §1

[3] = compound: NC(=O)c1cnc(N[C@@H]2CCCC[C@@H]2N)nc1Nc1cccc(-n2nccn2)c1
In short: as §1

[4] = compound: NCC(=O)Nc1ccc(-n2nc(C(F)(F)F)cc2-c2ccc3c(ccc4ccccc43)c2)cc1
In short: as §1

vorinostat = compound: O=C(CCCCCCC(=O)Nc1ccccc1)NO [vorinostat]
In short: as §1

[5] = compound: NC1(c2ccc(-c3nc4ccn5c(=O)[nH]nc5c4cc3-c3ccccc3)cc2)CCC1
In short: as §1

silmitasertib = compound: O=C(O)c1ccc2c(c1)nc(Nc1cccc(Cl)c1)c1ccncc12 [silmitasertib]
In short: as §1

[6] = compound: NC(=O)Nc1cc(-c2cccc(F)c2)sc1C(=O)N[C@H]1CCCNC1
In short: as §1

entinostat = compound: Nc1ccccc1NC(=O)c1ccc(CNC(=O)OCc2cccnc2)cc1 [entinostat]
In short: as §1

PKP4 (UniProt Q99569)
log2 fold change (citarinostat): inactive: 0.023
log2 fold change [1]: inactive: 0.14
log2 fold change [2]: inactive: 0.012

PKHD1 (UniProt P08F94)
log2 fold change [3]: inactive: -0.29
log2 fold change [4]: inactive: -0.113
log2 fold change (citarinostat): inactive: 0.084
log2 fold change [2]: inactive: -0.013

PGD (UniProt K7EM49)
log2 fold change [4]: inactive: -0.061
log2 fold change (vorinostat): inactive: -0.301
log2 fold change [1]: inactive: -0.203

PIM1 isoform 2 (UniProt P11309)
log2 fold change [5]: inactive: 0.388
log2 fold change (vorinostat): inactive: -0.123
log2 fold change (silmitasertib): inactive: 0.575

PKNOX1 (UniProt P55347)
log2 fold change [3]: inactive: 0.093

PI4KB isoform 2 (UniProt Q9UBF8)
log2 fold change (vorinostat): inactive: -0.023
log2 fold change (citarinostat): inactive: -0.056
log2 fold change [2]: inactive: 0.046

PKIB isoform 2 (UniProt Q9C010)
log2 fold change [5]: inactive: 0.083
log2 fold change (vorinostat): inactive: -0.034
log2 fold change (citarinostat): inactive: -0.028
log2 fold change (silmitasertib): inactive: 0.003
log2 fold change [2]: inactive: -0.248

PLD6 (UniProt Q8N2A8)
log2 fold change [6]: inactive: 0.085
log2 fold change [4]: inactive: -0.145
log2 fold change (entinostat): inactive: 0
log2 fold change [1]: inactive: 0.086

PIBF1 (UniProt Q8WXW3)
log2 fold change [5]: inactive: 0.389
log2 fold change (silmitasertib): inactive: 0.033

PIP5K1C isoform 3 (UniProt O60331)
log2 fold change [6]: inactive: -0.01
log2 fold change (entinostat): inactive: 0.028
log2 fold change (vorinostat): inactive: 0.225
log2 fold change [1]: inactive: 0.087

PFKFB1 (UniProt P16118)
log2 fold change [6]: inactive: -0.338
log2 fold change [5]: inactive: -0.019
log2 fold change (entinostat): inactive: 0.2
log2 fold change (vorinostat): inactive: -0.113
log2 fold change (silmitasertib): inactive: 0.089
log2 fold change [1]: inactive: -0.051

PHLDB1 isoform 2 (UniProt Q86UU1)
log2 fold change [3]: inactive: 0.112
log2 fold change [5]: inactive: -0.057
log2 fold change [4]: inactive: -0.186
log2 fold change (vorinostat): inactive: 0.229
log2 fold change (citarinostat): inactive: -0.014
log2 fold change (silmitasertib): inactive: 0.045
log2 fold change [1]: inactive: -0.178
log2 fold change [2]: inactive: -0.117

PHETA1 isoform 4 (UniProt Q8N4B1)
log2 fold change [3]: inactive: -0.116
log2 fold change (vorinostat): inactive: 0.014

PLEK (UniProt P08567)
log2 fold change [4]: inactive: 0.073

PHC3 isoform 7 (UniProt Q8NDX5)
log2 fold change [6]: inactive: 0.158
log2 fold change [5]: inactive: -0.125
log2 fold change (entinostat): inactive: 0.1
log2 fold change (citarinostat): inactive: 0.172
log2 fold change (silmitasertib): inactive: -0.018
log2 fold change [1]: active: 0.567
log2 fold change [2]: inactive: -0.014

PKLR (UniProt F8W6W2)
log2 fold change [3]: inactive: -0.407
log2 fold change [4]: inactive: -0.475

PHRF1 (UniProt Q9P1Y6)
log2 fold change [5]: inactive: 0.148
log2 fold change (silmitasertib): inactive: 0.176

PKN3 (UniProt Q6P5Z2)
log2 fold change [6]: inactive: 0.009
log2 fold change (entinostat): inactive: -0.135

PLAUR (UniProt Q03405)
log2 fold change [3]: inactive: 0.172

PIGM (UniProt Q9H3S5)
log2 fold change [6]: inactive: 0.061
log2 fold change [4]: inactive: -0.031
log2 fold change (entinostat): inactive: 0
log2 fold change (citarinostat): inactive: 0
log2 fold change [2]: inactive: -0.057

PHYKPL (UniProt Q8IUZ5)
log2 fold change [6]: inactive: -0.02
log2 fold change [5]: inactive: 0.018
log2 fold change (entinostat): inactive: -0.032
log2 fold change (vorinostat): inactive: 0.045
log2 fold change (silmitasertib): inactive: -0.011
log2 fold change [1]: inactive: -0.012

PFKM (UniProt F8VTQ3)
log2 fold change (vorinostat): inactive: 0.017

PHC2 isoform 5 (UniProt Q8IXK0)
log2 fold change [6]: inactive: 0.084
log2 fold change [5]: inactive: -0.262
log2 fold change [4]: inactive: -0.02
log2 fold change (entinostat): inactive: -0.071
log2 fold change (citarinostat): inactive: -0.039
log2 fold change (silmitasertib): inactive: -0.138
log2 fold change [1]: inactive: 0.162
log2 fold change [2]: inactive: -0.262

PKIG (UniProt Q9Y2B9)
log2 fold change [5]: inactive: 0.377
log2 fold change (silmitasertib): inactive: 0.106

PIGB (UniProt Q92521)
log2 fold change [6]: inactive: 0.117
log2 fold change [5]: inactive: -0.188
log2 fold change (entinostat): inactive: -0.135
log2 fold change (vorinostat): inactive: 0.009
log2 fold change (citarinostat): inactive: 0
log2 fold change (silmitasertib): inactive: -0.086
log2 fold change [1]: inactive: -0.016
log2 fold change [2]: inactive: -0.056

PIGH (UniProt Q14442)
log2 fold change [3]: inactive: -0.021
log2 fold change [5]: inactive: -0.087
log2 fold change [4]: inactive: -0.021
log2 fold change (vorinostat): inactive: 0.18
log2 fold change (citarinostat): inactive: 0.031
log2 fold change (silmitasertib): inactive: 0.093
log2 fold change [1]: inactive: -0.128
log2 fold change [2]: inactive: -0.05

PIK3C2A (UniProt O00443)
log2 fold change [6]: inactive: -0.005
log2 fold change [5]: inactive: -0.04
log2 fold change (entinostat): inactive: 0.071
log2 fold change (silmitasertib): inactive: 0.02
log2 fold change [1]: inactive: 0.5

PHOSPHO2 (UniProt Q8TCD6)
log2 fold change [3]: inactive: -0.06
log2 fold change [5]: inactive: -0.06
log2 fold change [4]: inactive: 0.04
log2 fold change (silmitasertib): inactive: 0.009

PICK1 (UniProt Q9NRD5)
log2 fold change [6]: inactive: -0.33
log2 fold change [5]: inactive: -0.217
log2 fold change (entinostat): inactive: -0.155
log2 fold change (silmitasertib): inactive: 0.143
log2 fold change [1]: inactive: 0.049

PHLPP1 (UniProt O60346)
log2 fold change [1]: inactive: -0.011

PHF14 (UniProt O94880)
log2 fold change [6]: inactive: 0
log2 fold change [5]: inactive: 0.158
log2 fold change [4]: inactive: 0.127
log2 fold change (entinostat): inactive: -0.127
log2 fold change (vorinostat): inactive: -0.145
log2 fold change (silmitasertib): inactive: 0.211

PHF19 isoform 2 (UniProt Q5T6S3)
log2 fold change [6]: inactive: -0.006
log2 fold change [5]: inactive: -0.235
log2 fold change [4]: inactive: -0.008
log2 fold change (entinostat): inactive: 0.017
log2 fold change (vorinostat): inactive: -0.122
log2 fold change (citarinostat): inactive: 0.054
log2 fold change (silmitasertib): inactive: 0.225
log2 fold change [1]: inactive: -0.011
log2 fold change [2]: inactive: 0.004

PKMYT1 (UniProt Q99640)
log2 fold change [6]: inactive: 0
log2 fold change (entinostat): inactive: 0.049
log2 fold change (citarinostat): inactive: -0.098
log2 fold change [1]: inactive: 0.183
log2 fold change [2]: inactive: 0.003

PIGL (UniProt Q9Y2B2)
log2 fold change [3]: inactive: 0.064
log2 fold change [5]: inactive: 0.057
log2 fold change [4]: inactive: 0.03
log2 fold change (vorinostat): inactive: -0.027
log2 fold change (citarinostat): inactive: -0.011
log2 fold change (silmitasertib): inactive: 0.187
log2 fold change [1]: inactive: 0.074
log2 fold change [2]: inactive: -0.037

PLEKHA5 isoform 6 (UniProt Q9HAU0)
log2 fold change [3]: inactive: -0.03
log2 fold change [5]: inactive: 0.146
log2 fold change [4]: inactive: 0.094
log2 fold change (vorinostat): inactive: -0.038
log2 fold change (citarinostat): inactive: 0.29
log2 fold change (silmitasertib): inactive: 0.139
log2 fold change [1]: inactive: -0.006
log2 fold change [2]: inactive: -0.501

PIGO (UniProt Q8TEQ8)
log2 fold change [5]: inactive: -0.076
log2 fold change [4]: inactive: -0.075
log2 fold change (silmitasertib): inactive: -0.15
log2 fold change [1]: inactive: -0.108

PIAS4 (UniProt Q8N2W9)
log2 fold change [5]: inactive: 0.094
log2 fold change (vorinostat): inactive: -0.014
log2 fold change (silmitasertib): inactive: -0.271
log2 fold change [1]: inactive: -0.404

PIMREG (UniProt Q9BSJ6)
log2 fold change (vorinostat): inactive: -0.205
log2 fold change (citarinostat): inactive: -0.061
log2 fold change [2]: inactive: -0.217

PEX26 (UniProt Q7Z412)
log2 fold change [3]: inactive: -0.061
log2 fold change [5]: inactive: -0.148
log2 fold change [4]: inactive: -0.045
log2 fold change (vorinostat): inactive: 0.026
log2 fold change (silmitasertib): inactive: 0.069
log2 fold change [1]: inactive: -0.279

PLCG2 (UniProt P16885)
log2 fold change [3]: inactive: -0.274
log2 fold change (citarinostat): inactive: -0.163
log2 fold change [2]: inactive: -0.021
